Reference: US20250177378A1, “TREATMENT OF DEPRESSION” (priority 2022, published 2025)
For at least one compound, name, drawing or mass did not settle the structure.

experiment: Pharmacokinetics of dextromethorphan, bupropion and metabolites after administration of the subject combination

Structure (SMILES)	Time of Cmax of metabolite post-dose
CC(NC(C)(C)C)C(O)c1cccc(Cl)c1 (stereo not drawn) [erythrohydroxybupropion]	approximately 4 hours
C[C@H]1NC(C)(C)CO[C@]1(O)c1cccc(Cl)c1 [hydroxybupropion]	about 3 hours
C[C@H](NC(C)(C)C)[C@@H](O)c1cccc(Cl)c1 [threohydroxybupropion]	approximately 4 hours
